Assay results: article doi:10.1101/2022.02.08.479616

What was measured:
[1] = molecular target: T1, OR-Like (ORL), Cub fusion for split-ubiquitin Y2H (Arabidopsis thaliana) (UniProt Q8VYD8); assay: two-hybrid
T1 sequence: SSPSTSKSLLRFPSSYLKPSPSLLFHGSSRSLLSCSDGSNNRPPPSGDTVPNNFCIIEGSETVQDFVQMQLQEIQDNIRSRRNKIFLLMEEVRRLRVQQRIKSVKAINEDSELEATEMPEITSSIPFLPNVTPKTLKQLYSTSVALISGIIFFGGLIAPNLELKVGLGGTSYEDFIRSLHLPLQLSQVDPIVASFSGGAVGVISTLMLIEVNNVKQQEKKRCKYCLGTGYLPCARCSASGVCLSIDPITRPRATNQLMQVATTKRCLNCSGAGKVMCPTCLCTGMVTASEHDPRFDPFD

[2] = molecular target: T2, ORANGE (OR), split-YFP fusion for BiFC (Arabidopsis thaliana) (UniProt Q9FKF4); assay: split reporter
T2 sequence: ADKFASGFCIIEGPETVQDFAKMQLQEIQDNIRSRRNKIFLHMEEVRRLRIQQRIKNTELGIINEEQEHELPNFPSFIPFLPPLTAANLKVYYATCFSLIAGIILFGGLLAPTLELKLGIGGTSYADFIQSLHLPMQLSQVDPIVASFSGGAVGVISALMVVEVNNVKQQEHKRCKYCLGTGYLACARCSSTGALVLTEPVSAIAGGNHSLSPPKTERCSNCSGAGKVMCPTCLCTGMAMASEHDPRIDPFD

[3] = molecular target: T3, OR-Like (ORL), split-YFP fusion for BiFC (Arabidopsis thaliana) (UniProt Q8VYD8); assay: split reporter
T3 sequence: T1 sequence

| binding [1] | binding [2] | binding [3] | Substance |
| --- | --- | --- | --- |
| binds | – | – | magnesium chelatase subunit I (CHLI), Nub fusion for split-ubiquitin Y2H (Arabidopsis thaliana) |
| – | binds | binds | magnesium chelatase subunit I (CHLI), split-YFP fusion for BiFC (Arabidopsis thaliana) |

These are yes or no findings as the source states them, for the method shown. A result given as binding can be weak or reduced; the word gives no strength. Where a sequence is shown, tags or fusion partners need not be part of it. For part of these data: In cells and extracts the contact can be indirect.
